Among all 360,000 compounds or so, about 7,500 (2.1%) were called active. This list was built around the results that the source calls inconclusive (neither active nor inactive); the mix of calls is not that of the screen. Calls follow the shape of the dose curve; as a rule, active = well fitted inhibition curve with a large enough effect; inconclusive = small, poorly fitted or top-dose-only effect, or effect the other way; inactive = flat fitted curve, though single readings scatter. Where the call is inconclusive, the potency comes from a doubtful curve fit.
Assay: Nrf2 qHTS screen for inhibitors; also: nearly all actives have a fitted effect of over 60% in size
Details: A549 ARE-Fluc reporter, luciferase luminescence, 18-24 h; activity change, negative = inhibition: at 46 µM (top of the series)
Outline: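 In this cell-based qHTS, ARE-driven firefly luciferase in A549 cells reports Nrf2 activity; the luminescent signal after BugLite lysis is the measured value, with a prior CellTiter-Fluor read for cell health.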
% is scaled to controls: 0 for no effect and ±100 for the full control effect; potency is read from the fitted curve at half-maximal effect.

Row | Structure (SMILES) | activity change, negative = inhibition | Potency
1 | COC(=O)COc1ccc(S(=O)(=O)Nc2ccc(C(N)=O)cc2)cc1Cl | inactive: -4.18% | 
2 | O=c1[nH]c(NCc2ccccc2)nc2c1CCC2 |  | inconclusive: 13 µM [falling, partial curve, poor fit]
3 | O=C(Nc1cccc(F)c1)N1CCCC(CNS(=O)(=O)Cc2ccccc2)C1 (centres undefined) | inactive: 0.926% | 
4 | O=C(CN1C(=O)CCSc2ccccc21)Nc1ccccc1F | inactive: 7.37% | 
5 | O=C(COC(=O)Cn1cnc2ccccc21)Nc1ccc2c(c1)C(=O)c1ccccc1C2=O |  | inconclusive: 3.66 µM [activator, partial curve]
6 | CCOC(=O)N1CCC(NC(=O)Cn2cc3c(n2)CCC(C)C3)CC1 (centres undefined) |  | inconclusive: 6.51 µM [falling, partial curve, poor fit]
7 | COc1ccccc1NC(=O)CCC(=O)OCc1ccc([N+](=O)[O-])cc1 |  | inconclusive: 4.11 µM [activator, full curve]
8 | Cc1ccc(NCc2nnc(SCC#N)o2)c(C)c1 |  | inconclusive: 1.46 µM [falling, full curve, poor fit]
9 | Cc1ccc2nc(NC(=O)CSCC(=O)OCC(=O)c3ccccc3)sc2c1 |  | inconclusive: 29.1 µM [falling, single point]
10 | NC(=O)c1ccccc1N=Cc1ccc2ccccc2c1 |  | inconclusive: 2.31 µM [activator, partial curve, poor fit]
11 | c1ccc(CCCc2nc(-c3ccccn3)no2)cc1 |  | inconclusive: 2.06 µM [activator, partial curve]
12 | O=C(c1ccc(S(=O)(=O)c2ccccc2Cl)c([N+](=O)[O-])c1)N1CCN(Cc2ccccc2)CC1 |  | active: 18.4 µM
13 | CC(C)CCNC(=O)C1CCC(Cn2c(=O)c3sccc3n(CC(=O)NC(C)C)c2=O)CC1 (centres undefined) |  | inconclusive: 29.1 µM [activator, single point]
14 | COc1ccc(CNC(=O)c2cc3c(s2)-c2ccccc2OC3)cc1 | inactive: 8.62% | 
15 | COCCN=C1Sc2nc3ccc(C)cc3cc2CN1Cc1cccs1 |  | inconclusive: 25.9 µM [activator, single point]
16 | O=C(/C=C/c1ccc(S(=O)(=O)N2CCOCC2)cc1)Nc1ccc(F)c(F)c1F |  | inconclusive: 29.1 µM [falling, single point]
17 | Cc1nc2ccc(S(=O)(=O)NCC(=O)N3CCN(c4ccccc4)CC3)cc2s1 |  | inconclusive: 20.6 µM [falling, single point]
18 | COC(=O)C(CCSC)NC(=O)c1cc2c(n(-c3ccc(C)cc3)c1=O)CC(C)(C)CC2=O (centres undefined) | inactive: -20.8% | 
19 | O=C(CCN1CCN(c2ccc(Cl)cc2)CC1)Nc1nccs1 |  | inconclusive: 0.0041 µM [activator, full curve, poor fit]

2 records drawn at random from those above:
Row | Structure (SMILES) | activity change, negative = inhibition | Potency
19 | O=C(CCN1CCN(c2ccc(Cl)cc2)CC1)Nc1nccs1 |  | inconclusive: 0.0041 µM [activator, full curve, poor fit]
13 | CC(C)CCNC(=O)C1CCC(Cn2c(=O)c3sccc3n(CC(=O)NC(C)C)c2=O)CC1 (centres undefined) |  | inconclusive: 29.1 µM [activator, single point]

Source: PubChem BioAssay AID504444 (National Center for Advancing Translational Sciences (NCATS), 2011)
